Data published in US5695963.
Construct, isoform or probe ends are uncertain for at least one entry.

Chains of the proteins cited; added tags and fusions are not shown. Chains listed by the source or under a name are the forms on record and can include a tag or linker.
EPAS1/ARNT heterodimer (Homo sapiens (EPAS1) / Mus musculus (ARNT)), one chain, as listed by the source, chain 2 of 2: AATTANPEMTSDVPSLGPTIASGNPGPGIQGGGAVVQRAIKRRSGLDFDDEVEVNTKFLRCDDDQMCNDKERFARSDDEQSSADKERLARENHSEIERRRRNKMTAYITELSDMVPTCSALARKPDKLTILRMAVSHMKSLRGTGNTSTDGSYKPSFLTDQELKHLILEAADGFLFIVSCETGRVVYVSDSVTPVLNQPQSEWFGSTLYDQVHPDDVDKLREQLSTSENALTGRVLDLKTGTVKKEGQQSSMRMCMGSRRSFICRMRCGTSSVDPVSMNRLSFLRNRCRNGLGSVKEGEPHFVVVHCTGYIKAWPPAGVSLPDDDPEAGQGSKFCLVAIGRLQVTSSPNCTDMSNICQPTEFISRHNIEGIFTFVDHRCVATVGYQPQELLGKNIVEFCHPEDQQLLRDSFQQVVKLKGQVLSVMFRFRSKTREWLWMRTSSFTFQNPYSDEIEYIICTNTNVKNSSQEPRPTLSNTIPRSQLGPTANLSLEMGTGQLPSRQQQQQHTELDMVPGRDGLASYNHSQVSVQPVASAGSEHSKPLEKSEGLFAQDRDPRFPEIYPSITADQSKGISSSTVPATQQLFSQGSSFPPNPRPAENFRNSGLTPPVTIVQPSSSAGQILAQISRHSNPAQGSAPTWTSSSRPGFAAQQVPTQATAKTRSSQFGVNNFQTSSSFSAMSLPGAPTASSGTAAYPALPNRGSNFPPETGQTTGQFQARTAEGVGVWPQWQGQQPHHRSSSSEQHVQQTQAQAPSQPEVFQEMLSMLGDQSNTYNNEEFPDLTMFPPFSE
EPAS1/ARNT heterodimer (Homo sapiens (EPAS1) / Mus musculus (ARNT)), one chain, as listed by the source, chain 1 of 2: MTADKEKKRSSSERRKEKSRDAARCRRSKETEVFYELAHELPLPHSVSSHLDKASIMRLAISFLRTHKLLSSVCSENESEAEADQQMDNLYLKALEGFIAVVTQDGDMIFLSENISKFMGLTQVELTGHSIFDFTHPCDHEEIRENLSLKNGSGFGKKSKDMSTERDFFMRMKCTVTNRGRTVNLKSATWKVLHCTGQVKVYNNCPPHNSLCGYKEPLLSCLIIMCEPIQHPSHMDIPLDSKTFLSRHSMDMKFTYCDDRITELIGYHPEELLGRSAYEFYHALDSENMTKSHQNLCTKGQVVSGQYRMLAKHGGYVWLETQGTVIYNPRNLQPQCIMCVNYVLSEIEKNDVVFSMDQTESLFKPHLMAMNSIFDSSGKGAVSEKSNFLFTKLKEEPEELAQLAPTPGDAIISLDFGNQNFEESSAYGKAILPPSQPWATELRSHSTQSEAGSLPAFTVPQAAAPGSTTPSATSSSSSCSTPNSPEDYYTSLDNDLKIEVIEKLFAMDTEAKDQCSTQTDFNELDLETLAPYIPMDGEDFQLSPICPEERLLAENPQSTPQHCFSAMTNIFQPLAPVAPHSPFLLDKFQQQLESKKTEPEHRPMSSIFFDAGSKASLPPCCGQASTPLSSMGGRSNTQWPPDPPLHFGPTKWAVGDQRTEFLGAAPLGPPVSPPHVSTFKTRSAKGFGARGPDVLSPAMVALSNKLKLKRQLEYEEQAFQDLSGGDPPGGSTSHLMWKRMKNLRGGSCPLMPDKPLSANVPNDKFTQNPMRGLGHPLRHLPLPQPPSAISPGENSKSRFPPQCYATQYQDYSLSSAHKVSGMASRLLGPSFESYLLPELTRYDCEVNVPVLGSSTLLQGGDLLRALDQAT

Tested on: EPAS1/ARNT heterodimer (Homo sapiens (EPAS1) / Mus musculus (ARNT))
Experiment: EMSA
Settings: complex only with both EPAS1 and ARNT; supershifted by anti-EPAS1; 4 C; protein translated in vitro

GCCCTACGTGCTGTCTCA (double strand) [HIF-1alpha response element, erythropoietin 3' flank]
binding result: binds
